The values below come from patent publication US20160237156A1.

By UniProt entry, the sequences of proteins in these tests, tags left out.
UniProt P61073: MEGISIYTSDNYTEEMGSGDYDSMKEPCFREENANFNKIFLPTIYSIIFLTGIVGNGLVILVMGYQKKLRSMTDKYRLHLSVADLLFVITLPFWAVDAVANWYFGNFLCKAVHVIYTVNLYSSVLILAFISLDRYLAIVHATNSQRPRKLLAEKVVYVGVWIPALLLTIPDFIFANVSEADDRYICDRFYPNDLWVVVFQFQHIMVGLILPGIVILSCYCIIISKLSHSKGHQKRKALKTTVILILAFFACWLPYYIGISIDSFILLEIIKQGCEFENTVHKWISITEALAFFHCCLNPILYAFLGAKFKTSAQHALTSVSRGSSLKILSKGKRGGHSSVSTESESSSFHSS

Results are given in words; binding and its absence hold for the method and conditions named. Some entries that bind do so weakly or less than the wild type.

The target of assay [1] is CXCR4 (human) (UniProt P61073). Kind of assay: flow cytometry, Alexa Fluor 647 goat anti-human IgG (axis: 2nd Ab APC). For orientation: Flow cytometry measures light scatter and fluorescence of single cells or particles in a stream.
For assay [2], the target named is CXCR4 (human) (UniProt P61073). Description: flow cytometry on Jurkat cells and CXCR4 transfected CHO cells.
Assay [3] has as its target SNAP-tag-CXCR4 (Tag-lite labeled CXCR4 cells, Cisbio Bioassays) (UniProt P61073). Description: Tag-lite HTRF competition against 50 nM fluorescent ligand (SDF-1) on Tag-lite labeled CXCR4 cells. In general terms: In TR-FRET formats the signal depends on donor and acceptor labels being close together.
Assay [4] has the same target. Kind of assay: Tag-lite HTRF competition with 50 nM fluorescent ligand.
Assay [5] has the same target. Kind of assay: Tag-lite HTRF competition against 50 nM fluorescently labeled SDF-1 on Tag-lite labeled CXCR4 cells.
Assay [6] has the same target. Kind of assay: Tag-lite HTRF binding assay.
The target is the same in assay [7]. Kind of assay: Tag-lite HTRF competition.

B1: BLV1H12 (control antibody) (antibody)
VH: QVQLRESGPSLVKPSQTLSLTCTASGFSLSDKAVGWVRQAPGKALEWLGSIDTGGNTGYNPGLKSRLSITKDNSKSQVSLSVSSVTTEDSATYYCTSVHQETKKYQSCPDGYRERSDCSNRPACGTSDCCRVSVFGNCLTTLPVSYSYTYNYEWHVDVWGQGLLVTVSS
light: QAVLNQPSSVSGSLGQRVSITCSGSSSNVGNGYVSWYQLIPGSAPRTLIYGDTSRASGVPDRFSGSRSGNTATLTISSLQAEDEADYFCASAEDSSSNAVFGSGTTLTVLGQPKSPPSVTLFPPSTEELNGNKATLVCLISDFYPGSVTVVWKADGSTITRNVETTRASKQSNSKYAASSYLSLTSSDWKSKGSYSCEVTHEGSTVTKTVKPSECS
Consider B1, for which the binding entry with CXCR4 (human) [1] is “no binding (tested: 1 ug/ml)”; with CXCR4 (human) [2], “no binding”.

B2: BLV1H12-beta BCCX2 HC 4 IgG (antibody, V domains shown)
VH: ASGFSLSDKAVGWVRQAPGKALEWLGSIDETKKYQSYRKCRGGRRWCYQKSYTYNYETGYNPGLKSRLSITKDNSKSQVSLSVSSVTTEDSATYYCTSVHQGGGGSWHVDVWGQGLLVTVSS
VL: QAVLNQPSSVSGSLGQRVSITCSGSSSNVGNGYVSWYQLIPGSAPRTLIYGDTSRASGVPDRFSGSRSGNTATLTISSLQAEDEADYFCASAEDSSSNAVFGSGTTLTVLG
Take B2: the binding entry in assay [3], in assay [4] and in assay [5] was “binds” in each case.

B3: BLV1H12-beta BCCX2 HC 3 IgG (antibody, V domains shown)
VH: QVQLRESGPSLVKPSQTLSLTCTASGFSLSDKAVGWVRQAPGKALEWLGSIDTGGNTGYNPGLKSRLSITKDNSKSQVSLSVSSVTTEDSATYYCTSVHQETKKYQSYRKCRGGNGRRWCYQKSYTYNYEWHVDVWGQGLLVTVSS
VL: B2 VL
Turning to B3, the binding result in assay [6], in assay [5] and in assay [7] was “binds” each time.

B4: BLV1H12-beta BCCX2 HC 2 IgG (antibody, V domains shown)
VH: QVQLRESGPSLVKPSQTLSLTCTASGFSLSDKAVGWVRQAPGKALEWLGSIDTGGNTGYNPGLKSRLSITKDNSKSQVSLSVSSVTTEDSATYYCTSVHQETKKYQSYRKCRGPRRWCYQKSYTYNYEWHVDVWGQGLLVTVSS
VL: B2 VL
Consider B4, for which the binding entry in assay [6] and in assay [5] was “binds” throughout.
